# Hit rate of the full screen: of about 320,000 compounds, about 22,000 (6.9%) were called active. The inconclusive results got no clear call from the source; some entries with a clear call stand among them for comparison. The call rests on the fitted dose curve; in most records, active means well fitted inhibition curve with a large enough effect; inconclusive means small, poorly fitted or top-dose-only effect, or another doubt; inactive means no such curve, though single readings can be large or run the other way. Potencies beside an inconclusive call are fits to weak or partial responses and may not hold up.
# Assay: Primary qHTS for delayed death inhibitors of the malarial parasite plastid, 96 hour incubation
# Settings: P. falciparum luciferase reporter growth; series mostly up to 28.7 µM; activity change, negative = inhibition: at the top concentration
# Procedure, shortened: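 Two parasite generations (96 h, 37 C, 5% CO2) of compound exposure in infected erythrocytes (0.05% parasitemia, 2% hematocrit). Luciferase-reporter P. falciparum; decreased luminescence indicates inhibited growth, aimed at apicoplast-acting delayed death.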
# On the % scale 0 is the no-effect control and ±100 the full control effect; potency means the concentration at half of the fitted maximal effect.
SMILES,Potency,"activity change, negative = inhibition"
Cc1ccc2nc(NCCCO)nc(-c3ccccc3)c2c1,"inconclusive: 10.4 µM [inhibitor, single point]",
CC(C)(Oc1ccc(Cl)cc1)C(=O)Nc1cccnc1,"inconclusive: 0.0033 µM [inhibitor, full curve, poor fit]",
Cc1cc(C)c(NC(=O)CCCCCNC2CCCCC2)c(C)c1,active: 13.1 µM,
CCC(O)C1CCN(C(=O)c2cc(COc3ccc4ncccc4c3)on2)CC1 (stereo not given),,inactive: -5.41%
CSc1ncc(C(=O)Nc2ccc(Br)cn2)c(C)n1,active: 1.85 µM,
O=S(=O)(NCC(c1ccco1)N1CCc2ccccc21)c1ccccc1 (stereo not given),"inconclusive: 10.4 µM [inhibitor, single point]",
COc1ccc(Cl)cc1N(CC(=O)N1CCCC1)S(=O)(=O)c1ccc(C)cc1,"inconclusive: 18.5 µM [inhibitor, single point]",
COc1ccc(C2N(c3ccc(OC)cc3)C(=O)C3CCCN32)cc1 (stereo not given),,inactive: 0%
COc1ccc(NC(=O)CCCNC(=O)c2ccc(Cl)cc2)c(OC)c1,,inactive: 39.2%
CCN(CC)c1ccc(NC(=O)c2ccc3c(c2)c(C)c(C)n3C)cc1,"inconclusive: 11.7 µM [inhibitor, single point]",
CCCn1c(=O)c(C(=O)Nc2cccc(C)n2)c(O)c2ccccc21,"inconclusive: 20.8 µM [inhibitor, partial curve, poor fit]",
COc1ccc(NC(=S)N(CCc2nc3cc(C)c(C)cc3[nH]2)Cc2cccnc2)cc1,"inconclusive: 10.4 µM [inhibitor, single point]",
CCCCn1c(N)c(N(CCOC)C(=O)c2sc3ccccc3c2Cl)c(=O)[nH]c1=O,"inconclusive: 18.5 µM [inhibitor, partial curve, poor fit]",
COc1cc(OC)c(OC)cc1CNC(=O)c1ccc(S(=O)(=O)N2CC(C)OC(C)C2)cc1 (stereo not given),active: 10.4 µM,
O=C(N/N=C/c1cn(-c2ccccc2)nc1-c1cccs1)c1ccc(Cl)cc1,"inconclusive: 11.7 µM [inhibitor, single point]",
CN1C(=O)C(O)(C2OC(C)(C)CCC2=O)c2ccccc21 (stereo not given),"inconclusive: 0.0029 µM [inhibitor, full curve, poor fit]",
CN(CCc1ccccn1)C(=O)CCC1CCCN(C(=O)c2cscn2)C1 (stereo not given),,inactive: 34.5%
O=c1cc(NCc2ccccc2)c2ccccc2o1,"inconclusive: 0.104 µM [inhibitor, full curve, poor fit]",
O=C(NCCc1ccccn1)c1ccc(COc2ccccc2)o1,"inconclusive: 5.22 µM [inhibitor, partial curve, poor fit]",
C[C@@]1([C@@H](NC(=O)c2cccs2)c2ccc(-c3ccccc3)cc2)C[C@H]1C1CCCCC1,active: 2.62 µM,
CCc1ccccc1NC(=S)N(CCN1CCOCC1)C1CCN(C(C)=O)CC1,"inconclusive: 14.7 µM [inhibitor, partial curve, poor fit]",
CCc1nnc(NS(=O)(=O)c2ccc(N/C=C/C(=O)c3ccc(OC)cc3)cc2)s1,"inconclusive: 10.4 µM [inhibitor, single point]",

# Not a retest: two of the compounds above.
SMILES,Potency,"activity change, negative = inhibition"
COc1ccc(NC(=S)N(CCc2nc3cc(C)c(C)cc3[nH]2)Cc2cccnc2)cc1,"inconclusive: 10.4 µM [inhibitor, single point]",
CCCCn1c(N)c(N(CCOC)C(=O)c2sc3ccccc3c2Cl)c(=O)[nH]c1=O,"inconclusive: 18.5 µM [inhibitor, partial curve, poor fit]",

# Additional structures:

SMILES,Potency,"activity change, negative = inhibition"
Cc1nnc(SCc2nc3sc4c(c3c(=O)[nH]2)CCCC4)n(N)c1=O,"inconclusive: 0.738 µM [inhibitor, full curve]",
CC#CCN1c2ccccc2[C@]23C[C@@H](C(=O)OC)N(C(=O)OCC)C2=NC(C(=O)OC)=C(C(=O)OC)[C@H]13,"inconclusive: 0.0828 µM [inhibitor, full curve, poor fit]",
Cc1ccc(C)c(S(=O)(=O)N2CCCC2CNC(=O)c2ccc([N+](=O)[O-])cc2)c1 (stereo not given),"inconclusive: 8.28 µM [inhibitor, partial curve, poor fit]",
Cc1ccc(CN2CCC(n3nccc3NC(=O)c3ccccc3C)CC2)o1,active: 2.08 µM,
CC(=O)c1ccc(NS(=O)(=O)Cc2ccccc2)cc1,"inconclusive: 18.5 µM [inhibitor, single point]",
CCOc1ccc(N=C2NN=C(c3cc(C)n(CC4CCCO4)c3C)CS2)cc1 (stereo not given),active: 2.08 µM,
COc1ccc(N2CCN(c3oc(COc4ccc(Cl)cc4)nc3C#N)CC2)cc1,"inconclusive: 1.85 µM [inhibitor, full curve, poor fit]",
N=C1c2ccccc2CN1c1ccc(F)c([N+](=O)[O-])c1,"inconclusive: 4.65 µM [inhibitor, partial curve]",
COC(=O)CC1COc2ccccc2N1C(=O)c1cccc(Cl)c1 (stereo not given),"inconclusive: 0.0928 µM [inhibitor, full curve, poor fit]",
COc1ccc(NC(=O)C2CC(c3cccc(Br)c3)=NO2)cc1OC (stereo not given),active: 10.4 µM,
CC(C)Oc1ccccc1C1(c2ccccc2)NC(=O)NC1=O (stereo not given),"inconclusive: 13.1 µM [inhibitor, single point]",
O=C(c1ccco1)N1CCN(Cc2cc(=O)c(OCc3ccc(F)cc3)co2)CC1,"inconclusive: 2.94 µM [inhibitor, partial curve, poor fit]",
O=C(c1ccc(Br)o1)N1CCc2ccccc21,,inactive: 262%
C/C(=C1\SC(N2CCOCC2)=NC1=O)c1ccccc1,"inconclusive: 11.7 µM [inhibitor, partial curve, poor fit]",
O=C(c1ccc2c(=O)n3c(nc2c1)CCCCC3)N1CCN(c2ccc(F)cc2)CC1,"inconclusive: 18.5 µM [inhibitor, single point]",
CC(C)c1ccc(/C=N/N2CCN(c3ccccn3)CC2)cc1,,inactive: 16.6%
COC(=O)C1=C(C)N(Cc2ccccc2)C(=NCCCCO)N[C@H]1c1ccccc1,"inconclusive: 18.5 µM [inhibitor, single point]",
CCCCNC(=S)NNC(=O)CCn1nc(C)c(Br)c1C,"inconclusive: 10.4 µM [inhibitor, single point]",
NS(=O)(=O)c1ccc(N2N=C(c3ccccc3)CC2c2ccc(F)cc2)cc1 (stereo not given),"inconclusive: 18.5 µM [inhibitor, single point]",
Cc1ccc(C)c(NS(=O)(=O)c2c(C)nc3sccn3c2=O)c1,"inconclusive: 18.5 µM [inhibitor, single point]",
NC(=O)C1CCN(c2nc(-c3ccccc3N)cs2)CC1,"inconclusive: 8.28 µM [inhibitor, partial curve]",
CCOC(=O)CC(NS(=O)(=O)c1ccc(NC(C)=O)cc1)c1ccc(OCC)cc1 (stereo not given),"inconclusive: 0.415 µM [inhibitor, partial curve, poor fit]",

SMILES,Potency,"activity change, negative = inhibition"
Cc1cccc(C)c1NC(=O)COC(=O)CCc1c[nH]c2ccccc12,active: 6.57 µM,
Cc1ccc(S(=O)(=O)N(C)C)cc1NC(=S)NNC(=O)C(N)=O,,inactive: 41.9%
COc1ccc(NC(=O)CN(C)CC(=O)NCC(=O)Nc2ccc(F)cc2)cc1,,inactive: 0%
CC(C)[C@H](NC(=O)[C@@H]1Cc2c([nH]c3ccccc23)C2c3ccccc3C(=O)N21)C(=O)N1CCC[C@@H]1C(=O)O (stereo not given in full),active: 14.7 µM,
COc1ccccc1NC(=O)Nc1ccc2c(c1)nnn2C,active: 9.28 µM,
Nc1c(Cl)cc2c(c1Oc1ccccc1)C(=O)c1ccccc1C2=O,"inconclusive: 18.5 µM [inhibitor, partial curve, poor fit]",
CCC(=O)Nc1ccc(Cl)c(NC(=O)c2ccc([N+](=O)[O-])cc2)c1,"inconclusive: 20.8 µM [inhibitor, partial curve, poor fit]",
CCN(CC)S(=O)(=O)c1ccc(N2CCCC2)c(NS(=O)(=O)c2ccccc2)c1,"inconclusive: 6.57 µM [inhibitor, partial curve, poor fit]",
CSc1ccc(CN(C)CCc2ccccn2)cc1,"inconclusive: 1.04 µM [inhibitor, full curve, poor fit]",
CC1(C)CC(=O)C=C(c2ccc(Oc3ccccc3)cc2)C1,"inconclusive: 16.5 µM [inhibitor, partial curve, poor fit]",
COC(=O)CC1=C(C(=O)OC)C(c2ccc3c(c2Cl)OCO3)C(C#N)=C(N)O1 (stereo not given),"inconclusive: 2.08 µM [inhibitor, full curve, poor fit]",
O=C(Nc1ccncc1)c1cccc(S(=O)(=O)N2CCN(c3ccc(F)cc3)CC2)c1,active: 11.7 µM,
CCCNC(=O)CSc1nc(COc2ccccc2)nc2ccccc12,"inconclusive: 14.7 µM [inhibitor, single point]",
Cc1cccc(/C(N)=N/OC(=O)CCC2CCCCC2)c1,"inconclusive: 9.28 µM [inhibitor, partial curve, poor fit]",
CCCCC(=O)Nc1sc(C(=O)N(CC)CC)c(C)c1C(=O)OC,"inconclusive: 5.22 µM [inhibitor, partial curve, poor fit]",
O=C(O)CCCCn1c(SCc2cc(=O)n3cc(Cl)ccc3n2)nc2ccsc2c1=O,"inconclusive: 1.17 µM [inhibitor, single point]",
CC(=O)NCCC(=O)Nc1sc2c(c1-c1nc3ccccc3[nH]1)CCCC2,"inconclusive: 6.57 µM [inhibitor, partial curve, poor fit]",
C=C(C)COc1ccc2c(C)c(CC(=O)N3C[C@H]4C[C@@H](C3)c3cccc(=O)n3C4)c(=O)oc2c1C,active: 11.7 µM,
COc1cccc2sc(Nc3nnc(-c4ccccc4Cl)o3)nc12,active: 1.31 µM,
O=C(CSCc1nc2ccccc2[nH]1)Nc1ccccc1,"inconclusive: 18.5 µM [inhibitor, single point]",
O=C(CSc1nnc(CNC(=O)c2ccccc2F)o1)NC1CCCC1,"inconclusive: 18.5 µM [inhibitor, single point]",

# From PubChem BioAssay AID504834 (National Center for Advancing Translational Sciences (NCATS), 2011)
